{"source": "patent US20240408218A1", "about": "(KØBENHAVNS UNIVERSITET, priority 2021, published 2024)", "assay": "general procedure: Fmoc solid-phase peptide synthesis; H-Rink amide ChemMatrix resin, 35-100 mesh, loading 0.40-0.60 mmol/g; HCTU/DIPEA", "conditions": "conjugation step, analytical HPLC (214 nm); RP-UPLC and ESI-LCMS"}
{"substance": "Glucagon Pen40/MK-8722", "values": [{"measurement": "purity (crude or final not stated)", "value": ">95", "unit": "%"}]}
